This assay has as its target human GPC3 (GPC3 antigen coated for panning and ELISA) (human) (UniProt P51654). Nature of the assay: ELISA, clone culture supernatant on GPC3-coated plate.

Amino acid sequences for entries named in this document (tags omitted). A change or cut given only in a name is not applied to a line headed by its entry.
UniProt P51654: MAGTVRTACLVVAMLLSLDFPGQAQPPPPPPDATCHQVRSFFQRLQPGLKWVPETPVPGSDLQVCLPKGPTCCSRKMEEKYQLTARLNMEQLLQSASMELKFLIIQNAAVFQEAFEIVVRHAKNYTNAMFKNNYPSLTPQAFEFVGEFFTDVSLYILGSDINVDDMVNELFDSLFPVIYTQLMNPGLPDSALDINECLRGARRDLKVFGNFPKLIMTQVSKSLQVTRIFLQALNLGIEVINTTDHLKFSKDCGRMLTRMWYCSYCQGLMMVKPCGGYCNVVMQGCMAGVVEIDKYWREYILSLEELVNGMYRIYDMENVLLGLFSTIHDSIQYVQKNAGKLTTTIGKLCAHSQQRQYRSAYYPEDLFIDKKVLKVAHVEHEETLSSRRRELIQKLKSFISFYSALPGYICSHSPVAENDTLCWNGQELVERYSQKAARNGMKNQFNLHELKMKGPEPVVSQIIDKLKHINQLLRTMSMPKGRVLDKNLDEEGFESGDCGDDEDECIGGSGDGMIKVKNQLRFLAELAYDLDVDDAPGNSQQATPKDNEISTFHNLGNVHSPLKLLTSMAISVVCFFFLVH

Positions count from the first letter of the chain named. Results are given in words; binding and its absence hold for the method and conditions named. Some results given as binding are weak or reduced against the parent protein; the word gives no strength.

B1: clone GX234 (scFv, V domains shown)
VH: QVQLVQSGAEVKKPGASVKVSCKASGYTFTSYGISWVRQAPGQGLEWMGWISAYNGNTNYAQKLQGRVTMTTDTSTSTAYMELRSLRSDDTAVYYCARVGLGDFWSGDYYYYYYGMDVWGQGTTVTVSS
VL: SSELTQDPAVSVALGQTVRITCQGDSLRSSYASWYHQKPGQAPVLVMYGKNNRPSGIPDRFSGSSSGNTASLTITGAQAEDEADYYCHSRDSTGSHPNWVFGGGTKLTVLG
As to B1, the binding result is “binds”.

B2: clone GX247 (scFv, V domains shown)
VH: QVQLVQSGAEVKKPGASVKVSCKASGYTFTSYYMHWVRQAPGQGLEWMGIINPSGGSTSYAQKFQGRVTMTRDTSTSTVYMELSSLRSEDTAVYYCARTRKGSGYSYGYGMDVWGQGTTVTVSS
VL: SYELTQPPSVSVSPGQTASITCSGDKLGNKYVSWYQQKPGQSPVLVIYQDNKRPSGIPERFSGSNSGNTATLTISGTQAMDEAGYYCQTWDSSVVFGGGTKLTVLG
As to B2, the binding result is reported as “binds”.

B3: clone GX245 (scFv, V domains shown)
VH: QVQLVESGGGLVKPGGSLRLSCAASGFTFSDYYMSWIRQAPGKGLEWVSYISSSGSTIYYADSVKGRFTISRDNAKNSLYLQMNSLRAEDTAVYYCARVSDDSPYWGQGTLVTVSS
VL: VIWMTQSPSSLSASVGDRVTITCQASQDISNYLNWYQQKPGKAPKLLIYDASNLETGVPSRFSGSGSGTDFTFTISSLQPEDIATYYCQQYDNLLALTFGGGTKLEIKR
Regarding B3, the binding result was “binds”.

B4: clone GX253 (scFv, V domains shown)
VH: B3 VH with Q1E, S56T, N77K, S100R, D102S, P104G, Y105F, Q108R
VL: QSVLTQPPSVSAAPGQKVTISCSGSSSNIGNNYVSWYQQLPGTAPKLLIYDNNKRPSGIPDRFSGSKSGTSATLGITGLQTGDEADYYCGTWDSSLSAWVVGGGTKLTVLG
As to B4, the binding entry was “binds”.

B5: clone GX122 (scFv, V domains shown)
VH: EVQLVESGAEVKKPGASVKVSCKASGYTFTSYYMHWVRQAPGQGLEWMGIINPSGGSTSYAQKFQGRVTMTRDTSTSTVYMELSSLRSEDTAVYYCARDGGSSPDIWGQGTMVTVSS
VL: SYELTQPPSVSVSPGQTARITCSGDALPKKYAYWYQQKSGQAPVLVIYEDKKRPSEIPERFSGSSSGTMATLTITGAQVDDEADYYCYSIDRSGSRGVFGGGTKLTVLG
Turning to B5, the binding result is reported as “binds”.

B6: clone GX263 (scFv, V domains shown)
VH: EVQLVESGGGLVKPGGSLRLSCAASGFTFSSYSMNWVRQAPGKGLEWVSSISSSSSYIYYADSVKGRFTISRDNAKNSLYLQMNSLRAEDTAVYYCARVTPYYYYGMDVWGQGTTVTVSS
VL: B4 VL with L4V, N52S, S57P, T91A, W99V, V101F
On to B6, for which the binding entry was “binds”.

B7: clone GX206 (scFv, V domains shown)
VH: QLQLQESGPGLVKPSETLSLTCTVSGGSISSSSYYWGWIRQPPGKGLEWIGSIYYSGSTYYNPSLKSRVTISVDTSKNQFSLKLSSVTAADTAVYYCARLGDYGGNGYYFDYWGQGTLVTVSS
VL: QSVLTQPPSVSAASGQKVTVSCSGSSSNIGKNGVSWHQQLPGTAPKLLIYENNRRPSEIPDRFSGSKSGTSATLAITGLQTGDEADYYCGTWDSSLNAGVFGTGTKVTVLG
Turning to B7, the binding result is “binds”.

B8: clone GX264 (scFv, V domains shown)
VH: QLQLQESGPGLVKPSETLSLTCTVSGGSISSSSYYWGWIRQPPGKGLEWIGSIYYSGSTYYNPSLKSRVTISVDTSKNQFSLKLSSVTAADTAVYYCARLRWYSYGYFDVRGGYYFDYWGRGTLVTVSS
VL: B7 VL
Regarding B8, the binding entry is reported as “binds”.

B9: clone GX201 (scFv, V domains shown)
VH: QVQLVESGGGLVNPGGSLRLSCAASGFTFSNYGMNWVRQAPGKGLEWVSSISTRSGYIFYADSVKGRFTISRDNAKNSLYLQMNSLRAEDTAVYYCARDRPNRSGMDVWGQGTTVTVSS
VL: QSALTQPASVSGSPGQSITISCTGTSSDVGGYNYVSWYQQHPGKAPKLMIYDVSNRPSGVSNRFSGSKSGNTASLTISGLQAEDEGDYYCSSYTSSDTLVFGSGTKVTVLG
On to B9, for which the binding result was “binds”.

B10: clone GX259 (scFv, V domains shown)
VH: QVQLVQSGAEVKKPGESLRISCKASGYKFTNYWIAWVRQMPGKGLEWMGIIYPGDSDTRYSPSLQGQVTISADKSITTAYLQWSSLRASDTAMYYCATIGLREGRWGQGTLVTVSS
VL: AIQMTQSPSSLSASVGDRVTITCRASQGISNYLAWYQQKPGKAPKLLIYDASNLETGVPSRFSGSGSGTDFTFTISSLQPEDIATYYCQQYDNLPFGQGTKLEIKR
In the case of B10, the binding entry is “binds”.

B11: clone GX207 (scFv, V domains shown)
VH: EVQLVQSGAEVKKPGASVKVSCKASGYTFTSYGISWVRQAPGQGLEWMGWISAYNGNTNYAQKLQGRVTMTTDTSTSTAYMELRSLRSDDTAVYYCAREGIAAAGYYYGMDVWGQGTTVTVSS
VL: QSALTQPPSVSGSPGQSVTISCTGTSSDVGGYNRVSWYQQPPGTAPKLMIYEVSNRPSGVPDRFSGSKSGNTASLTISGLQAEDEADYYCSSYTSSTTYVFGTGTKVTVLG
Take B11: the binding entry was “binds”.

B12: clone GX184 (scFv, V domains shown)
VH: QLQLQESGPGLVKPSETLSLTCAVSGGSISSSNNYWGWIRQPPGKGLEWIGSIFYSGSTYYNPSLKSRVTISVDTSKNQFSLKLSSVTAADTAVYYCARLPTGTPGFYFDYWGQGTLVTVSS
VL: SYELTQPPSVSKGLRQTATLTCTGNSNNVGNQGAAWLQQHQGHPPKLLSYRNNNRPSGISERFSASRSGNTASLTITGLQPEDEADYYCSAWDSSLSAWVFGGGTKLTVLG
As for B12, the binding entry is listed as “binds”.

B13: clone GX189 (scFv, V domains shown)
VH: B12 VH
VL: B12 VL with E3V, N27S, Q80R
For the molecule B13, the binding result is recorded as “binds”.

B14: clone GX221 (scFv, V domains shown)
VH: B12 VH
VL: B12 VL with E3V, G13D, N27S, L37V, N54K, F63L
Take B14: the binding entry is recorded as “binds”.

B15: clone GX224 (scFv, V domains shown)
VH: QVQLVQSGAEVKKPGASVKVSCKASGYTFTSYYMHWVRQAPGQGLEWMGIINPSGGSTSYAQKFQGRVTMTRDTSTSTVYMELSSLRSEDTAVYYCARSRPRSSSFDYWGRGTLVTVSS
VL: NFMLTQPHSVSESPGKTVTISCTVSSGSIAKNYVHWYQRRPGSAPTPLIYEDNRRPSGVPDRFSGSIDSSSNSASLTISGLKTEDEADYYCQSYDDSGDRFVFGTGTKVTVLG
B15: the binding entry is recorded as “binds”.

B16: clone GX225 (scFv, V domains shown)
VH: B15 VH with S99E, R100S, P101G, R102P, S104G, S105G, F106M, Y108V, R111Q, L114T
VL: SYELTQPPSVSVSPGQTARITCSGDALPKQYAYWYQQKPGQAPVLVIYKDSERPSGIPERFSGSSSGTTVTLTISGVQAEDEADYYCSSYTSSSTRVVFGGGTKLTVLG
As for B16, the binding result is on record as “binds”.

B17: clone GX099 (scFv, V domains shown)
VH: EVQLVESGAEVKKPGASVKVSCKASGYTFTSYYMHWVRQAPGQGLEWMGIINPSGGSTSYAQKFQGRVTMTRDTSTSTVYMELSSLRSEDTAVYYCARYSSSPAKIDYWGQGTLVTVSS
VL: QSVLTQPPSVSAAPGEKVIISCSGSSSNIGKYYVSWYQQLPGTAPKLLIYDNNKRPSGIPDRFSGSKSGTSATLGISGLQTGDEADYYCGTWDSSLNLVFGTGTKVTVLG
B17: the binding entry is “binds”.

B18: clone GX090 (scFv, V domains shown)
VH: QVQLVQSGAEVKKPGASVKVSCKASGYTFTSYGISWVRQAPGQGLEWMGWISAYNGNTNYAQKLQGRVTMTTDTSTSTAYMELRSLRSDDTAVYYCARGSSFSGFDPWGQGTLVTVSS
VL: QSVLTQPPSLSAAPGQKVTISCSGSSSNIGKNHVSWYQQFPGTAPKFLIYDNHRRPSGIPDRFSGSKSGTSATLDITGLQTGDEATYYCGTWDSSLSAVVFGGGTKLTVLG
For B18, the binding result is recorded as “binds”.

B19: clone GX197 (scFv, V domains shown)
VH: QVQLVQSGAEVKKPGASVKVSCKASGYTFTSYGISWVRQAPGQGLEWMGWISAYNGNTNYAQKLQGRVTMTTDTSTSTAYMELRSLRSDDTAVYYCASQGSGWLDYWGQGTLVTVSS
VL: NFMLTQPHSVSESPGKTVTISCTGSGGNIASNYVQWFQQRPGSAPTTVIYDDVQRPSGVPNRFSGSIDSSSNSASLSISGLKTEDEADYYCQSYDRTYRGVFGGGTKLTVLG
Take B19: the binding result is recorded as “binds”.

B20: clone GX214 (scFv, V domains shown)
VH: EVQLVESGGGLVKPGGSLRLSCAASGFTFSDYYMSWIRQAPGKGLEWVSYISSSGSTIYYADSVKGRFTISRDNAKNSLYLQMNSLRVDDTAVYYCATLYDFWSQGTLVTVSS
VL: NIQMTQSPSSLSASVGDRVTITCQASQDITNFLNWHQQKPGKAPELLIYDASNLETGVPSRFSGSGSGTDFTFTISSLQPEDVGTYYCQQYDNLPLTFGGGTKVEIKR
On to B20, for which the binding result was “binds”.

B21: clone GX242 (scFv, V domains shown)
VH: QVQLVESGGGLVKPGGSLRLSCAASGFTFSDYYMSWIRQAPGKGLEWVSYISSSGSTIYYADSVKGRFTISRDNAKNSLYLQMNSLRAEDTAVYYCARVVAAREDYWGQGTLVTVSS
VL: EIVLTQSPATLSLSPGERATLSCRATQSVGSYLAWYQQKPGQAPRLLIYDAFNRATGIPDRFSGSGSGTDFTLTISSLEPEDFAVYYCQQRSNWPLTFGGGTKVEIKR
As for B21, the binding entry is listed as “binds”.

B22: clone GX213 (scFv, V domains shown)
VH: QLQLQESGPGLVKPSETLSLTCTVSGGSISSSSYYWGWIRQPPGKGLEWIGSIYYSGSTYYNPSLKSRVTISVDTSKNQFSLKLSSVTAADTAVYYCARLFWQQLTFDYWGQGTLVTVSS
VL: QSVVTQPPSVSAAPGQRVSISCSGSSSNIGKNHVIWHQQFPGTAPKLLISENNKRPSGIPDRFSASKSGTSATLDITGLQTGDEADYYCGTWDNSLSAGVFGGGTKLTVLG
On to B22, for which the binding result was “binds”.

These data come from patent US20180346592A1.
